Data as given in publication doi:10.1101/2022.09.15.508094.
These are yes or no findings as the source states them, for the method shown. Some results given as binding are weak or reduced against the parent protein; the word gives no strength. For some assays here: Tags and fused reporters may be left off the sequences shown.

Protein sequences, listed by entry. Tags and fused reporters are not part of them.
UniProt O93309, whole entry: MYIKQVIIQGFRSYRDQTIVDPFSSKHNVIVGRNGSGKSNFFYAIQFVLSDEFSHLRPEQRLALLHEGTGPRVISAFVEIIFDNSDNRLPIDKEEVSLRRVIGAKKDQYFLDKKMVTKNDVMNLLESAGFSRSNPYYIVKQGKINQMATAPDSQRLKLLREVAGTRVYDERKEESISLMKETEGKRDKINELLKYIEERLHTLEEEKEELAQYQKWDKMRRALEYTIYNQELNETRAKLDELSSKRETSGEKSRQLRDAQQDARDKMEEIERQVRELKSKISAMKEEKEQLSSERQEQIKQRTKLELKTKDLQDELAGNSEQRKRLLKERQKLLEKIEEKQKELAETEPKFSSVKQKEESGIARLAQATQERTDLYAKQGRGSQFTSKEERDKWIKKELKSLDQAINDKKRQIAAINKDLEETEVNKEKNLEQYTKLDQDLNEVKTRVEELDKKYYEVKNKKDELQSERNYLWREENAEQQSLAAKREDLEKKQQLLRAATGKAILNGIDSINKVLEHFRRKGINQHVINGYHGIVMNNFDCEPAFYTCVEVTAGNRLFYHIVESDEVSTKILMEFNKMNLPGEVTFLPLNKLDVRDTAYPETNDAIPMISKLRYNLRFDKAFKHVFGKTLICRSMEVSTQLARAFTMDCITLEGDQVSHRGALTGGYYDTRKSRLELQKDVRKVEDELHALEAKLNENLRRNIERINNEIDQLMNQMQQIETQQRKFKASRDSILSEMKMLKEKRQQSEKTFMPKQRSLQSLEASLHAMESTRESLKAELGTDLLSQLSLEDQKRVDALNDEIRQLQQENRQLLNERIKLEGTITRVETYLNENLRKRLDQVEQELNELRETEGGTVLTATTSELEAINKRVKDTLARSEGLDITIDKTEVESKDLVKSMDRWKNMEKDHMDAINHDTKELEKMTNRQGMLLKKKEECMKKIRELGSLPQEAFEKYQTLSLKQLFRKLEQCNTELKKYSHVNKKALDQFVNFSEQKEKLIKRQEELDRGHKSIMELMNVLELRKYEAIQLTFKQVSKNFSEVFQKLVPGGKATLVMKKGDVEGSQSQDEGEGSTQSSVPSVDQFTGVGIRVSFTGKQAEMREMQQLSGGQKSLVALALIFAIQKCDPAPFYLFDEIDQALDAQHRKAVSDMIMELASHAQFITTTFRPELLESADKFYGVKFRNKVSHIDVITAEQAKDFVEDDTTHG

How the values were obtained:
[1] = target: T1, XRAD21-8xHis (Xenopus laevis) (UniProt O93310); assay: co-purification
T1 sequence: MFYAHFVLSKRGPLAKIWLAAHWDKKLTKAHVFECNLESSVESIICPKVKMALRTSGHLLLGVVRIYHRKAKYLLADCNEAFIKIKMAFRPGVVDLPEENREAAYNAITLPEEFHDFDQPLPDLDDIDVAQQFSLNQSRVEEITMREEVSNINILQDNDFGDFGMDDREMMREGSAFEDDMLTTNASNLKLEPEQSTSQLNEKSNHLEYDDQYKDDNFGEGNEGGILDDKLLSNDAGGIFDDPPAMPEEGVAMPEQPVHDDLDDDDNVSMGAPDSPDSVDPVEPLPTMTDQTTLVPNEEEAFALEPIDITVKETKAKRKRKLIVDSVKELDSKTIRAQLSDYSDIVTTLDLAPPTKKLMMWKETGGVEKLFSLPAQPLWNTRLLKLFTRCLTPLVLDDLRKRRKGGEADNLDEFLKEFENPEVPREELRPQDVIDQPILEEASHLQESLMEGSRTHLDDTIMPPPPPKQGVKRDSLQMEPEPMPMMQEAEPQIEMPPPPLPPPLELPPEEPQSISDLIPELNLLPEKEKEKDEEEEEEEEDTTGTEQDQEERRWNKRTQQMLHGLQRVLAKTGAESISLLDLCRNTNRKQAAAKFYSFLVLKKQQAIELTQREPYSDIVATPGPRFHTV

[2] = target: XSMC3-Halo-Flag (Xenopus laevis) (UniProt O93309); assay: co-purification

binding [1]: binds
binding [2]: binds
B1: XSMC1 (protein, UniProt O93308 1-1232)
chain: MGFLKLIEIENFKSYKGRQIIGPFHRFTAIIGPNGSGKSNLMDAISFVLGEKTSNLRVKTLRDLIHGAPVGKPAANRAFVSMVYSEDSGEEKVFSRVIVGGSSEYKINNKVVQLSEYSDSLEKLGILIKARNFLVFQGAVESIAMKNPKERTALFEEISRSGELAQEYDKRKKEMVKAEEDTQFNYHRKKNIAAERKEAKQEKEEAERYQRLKDEVARAQIQLQLFKLYHNESEIEKLNKELSVKNKGIEKDKKHMDKVEEELKDKKKELGKMMREQQAIEKEIKEKDAELNQKLPQYIKAKENPSHKIKKFRAAKKSLQNAQKQYKKRKADMDELEKEMLSVEKARQEFEERMEEESQSQGRDLTLEENQVKKYHRLKEEASKRAATLAQELEKFNRDQKADQDRLDLEERKKVETEAKIKQKLRELEENQKRIEKLEEYIATSKQSLEEQKNLEETLTEEVEMAKRRIDEINSELNQVMEQLGDARIDRQESSRQQRKAEIMESIKRLYPGSVYGRLIDLCQPTQKKYQIAVTKVLGKNMDAIIVDSEKTGRDCIQYIKEQRGEPETFLPLDYLEVKPTDERLRELKGAKLVIDVIRYEPPHIKKALQYACGNALVCDNVEDARRIAFGGHQRHKTVALDGTLFQKSGVISGGASDLKAKARRWDEKAVDKLKEKKERLTEELKEQMKAKRKEAELRQVQSQAHGLQMRLKYSQSDLEQTKTRHLAMNMQEKSKLESELANFSPRINDIKRIIQSRDREMKDLKEKMNQVEDEVFEEFCREIGVRNIREFEEEKVKRQNEIAKKRLEFENQKTRLGIQLDYEKNQLKEDQGKVQTWEQSVKKDDNEIEKLKKEEQRHMKIIDETMAQLQDLKNQHLAKKSEVNDKNHLMEDIRKKLGSANKEVTHLQKEVTAIETKLEQKRSDRHNLLQACKMSDIKLPLSKGTMDDISQEEGSSQGEESASSSQRSSTVYAKEALIEIDYSDLSEDLKDAVADDDIKQEMSALHQKINEQQSILQRISAPNMKAMEKLESVRDKFQETSDEFEAARKRAKKAKQAFEQTKKERFDRFNACFESVATNIDEIYKALSRNSSAQAFLGPENPEEPYLDGINYNCVAPGKRFRPMDNLSGGEKTVAALALLFAIHSYKPSPFFVLDEIDAALDNTNIGKVANYIKEQSMSNFQAIVISLKEEFYTKAESLIGVYPEQGDCVISKVLTFDLTKYPDANPNPND
